In publication PMC7455142 one finds binding data, which are given here for four molecules.

Chains of the proteins cited; added tags and fusions are not shown. Lines headed by an entry give the natural chain unless they say otherwise; changes in a name come on top. A line that says so, or that is headed by a name, gives the form on record, which may keep a tag or linker.
UniProt P60953: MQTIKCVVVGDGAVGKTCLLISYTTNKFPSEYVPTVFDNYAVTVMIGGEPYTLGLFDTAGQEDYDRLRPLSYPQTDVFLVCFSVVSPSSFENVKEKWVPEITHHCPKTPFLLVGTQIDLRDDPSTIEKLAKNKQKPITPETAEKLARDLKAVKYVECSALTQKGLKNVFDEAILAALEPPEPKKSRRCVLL
3xFlag-tagged Cdc42 splice variant 2 (P60953, form named): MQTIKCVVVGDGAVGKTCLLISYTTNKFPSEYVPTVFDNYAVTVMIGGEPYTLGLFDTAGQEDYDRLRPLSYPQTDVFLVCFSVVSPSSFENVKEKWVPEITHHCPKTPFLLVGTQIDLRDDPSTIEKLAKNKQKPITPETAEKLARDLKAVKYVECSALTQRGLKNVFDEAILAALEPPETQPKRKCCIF
UniProt P46940: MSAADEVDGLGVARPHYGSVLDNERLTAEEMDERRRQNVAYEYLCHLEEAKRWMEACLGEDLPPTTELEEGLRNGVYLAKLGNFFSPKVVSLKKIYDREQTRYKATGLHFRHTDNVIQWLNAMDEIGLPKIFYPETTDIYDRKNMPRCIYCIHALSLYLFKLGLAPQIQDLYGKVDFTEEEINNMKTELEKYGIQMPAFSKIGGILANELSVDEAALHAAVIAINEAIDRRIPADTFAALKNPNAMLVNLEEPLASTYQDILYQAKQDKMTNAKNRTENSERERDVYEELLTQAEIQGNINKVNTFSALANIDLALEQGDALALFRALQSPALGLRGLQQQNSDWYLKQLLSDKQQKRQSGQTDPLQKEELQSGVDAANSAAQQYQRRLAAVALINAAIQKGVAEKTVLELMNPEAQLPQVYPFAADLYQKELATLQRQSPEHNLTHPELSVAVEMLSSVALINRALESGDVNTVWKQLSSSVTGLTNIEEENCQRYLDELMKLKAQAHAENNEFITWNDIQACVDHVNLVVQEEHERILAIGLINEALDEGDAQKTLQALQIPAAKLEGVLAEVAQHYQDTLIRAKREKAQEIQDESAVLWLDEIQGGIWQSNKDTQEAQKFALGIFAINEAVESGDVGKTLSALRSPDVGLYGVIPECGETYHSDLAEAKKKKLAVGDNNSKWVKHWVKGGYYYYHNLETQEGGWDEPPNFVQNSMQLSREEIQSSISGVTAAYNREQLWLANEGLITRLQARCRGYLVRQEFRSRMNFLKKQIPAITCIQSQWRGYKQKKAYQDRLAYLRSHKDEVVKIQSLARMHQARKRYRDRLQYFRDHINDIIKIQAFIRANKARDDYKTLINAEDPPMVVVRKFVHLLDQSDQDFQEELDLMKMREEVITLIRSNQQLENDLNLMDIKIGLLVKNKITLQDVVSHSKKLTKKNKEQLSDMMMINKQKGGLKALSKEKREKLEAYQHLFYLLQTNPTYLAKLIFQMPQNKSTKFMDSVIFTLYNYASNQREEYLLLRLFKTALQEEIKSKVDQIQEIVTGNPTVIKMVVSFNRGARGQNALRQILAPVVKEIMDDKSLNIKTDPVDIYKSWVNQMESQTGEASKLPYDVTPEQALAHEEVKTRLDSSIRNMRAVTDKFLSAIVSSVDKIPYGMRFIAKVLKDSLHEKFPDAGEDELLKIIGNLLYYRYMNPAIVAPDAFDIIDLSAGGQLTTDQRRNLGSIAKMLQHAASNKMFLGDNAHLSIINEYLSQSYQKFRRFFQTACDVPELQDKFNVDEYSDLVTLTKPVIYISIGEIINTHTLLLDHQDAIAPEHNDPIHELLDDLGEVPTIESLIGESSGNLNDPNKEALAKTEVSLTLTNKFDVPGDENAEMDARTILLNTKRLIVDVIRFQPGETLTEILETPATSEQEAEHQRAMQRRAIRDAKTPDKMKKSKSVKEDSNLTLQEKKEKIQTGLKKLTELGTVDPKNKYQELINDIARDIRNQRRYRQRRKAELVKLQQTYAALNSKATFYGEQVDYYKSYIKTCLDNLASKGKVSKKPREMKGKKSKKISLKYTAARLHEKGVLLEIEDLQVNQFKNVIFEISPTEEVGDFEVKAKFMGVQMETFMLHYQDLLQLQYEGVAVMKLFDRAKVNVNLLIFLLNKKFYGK
UniProt Q86VI3: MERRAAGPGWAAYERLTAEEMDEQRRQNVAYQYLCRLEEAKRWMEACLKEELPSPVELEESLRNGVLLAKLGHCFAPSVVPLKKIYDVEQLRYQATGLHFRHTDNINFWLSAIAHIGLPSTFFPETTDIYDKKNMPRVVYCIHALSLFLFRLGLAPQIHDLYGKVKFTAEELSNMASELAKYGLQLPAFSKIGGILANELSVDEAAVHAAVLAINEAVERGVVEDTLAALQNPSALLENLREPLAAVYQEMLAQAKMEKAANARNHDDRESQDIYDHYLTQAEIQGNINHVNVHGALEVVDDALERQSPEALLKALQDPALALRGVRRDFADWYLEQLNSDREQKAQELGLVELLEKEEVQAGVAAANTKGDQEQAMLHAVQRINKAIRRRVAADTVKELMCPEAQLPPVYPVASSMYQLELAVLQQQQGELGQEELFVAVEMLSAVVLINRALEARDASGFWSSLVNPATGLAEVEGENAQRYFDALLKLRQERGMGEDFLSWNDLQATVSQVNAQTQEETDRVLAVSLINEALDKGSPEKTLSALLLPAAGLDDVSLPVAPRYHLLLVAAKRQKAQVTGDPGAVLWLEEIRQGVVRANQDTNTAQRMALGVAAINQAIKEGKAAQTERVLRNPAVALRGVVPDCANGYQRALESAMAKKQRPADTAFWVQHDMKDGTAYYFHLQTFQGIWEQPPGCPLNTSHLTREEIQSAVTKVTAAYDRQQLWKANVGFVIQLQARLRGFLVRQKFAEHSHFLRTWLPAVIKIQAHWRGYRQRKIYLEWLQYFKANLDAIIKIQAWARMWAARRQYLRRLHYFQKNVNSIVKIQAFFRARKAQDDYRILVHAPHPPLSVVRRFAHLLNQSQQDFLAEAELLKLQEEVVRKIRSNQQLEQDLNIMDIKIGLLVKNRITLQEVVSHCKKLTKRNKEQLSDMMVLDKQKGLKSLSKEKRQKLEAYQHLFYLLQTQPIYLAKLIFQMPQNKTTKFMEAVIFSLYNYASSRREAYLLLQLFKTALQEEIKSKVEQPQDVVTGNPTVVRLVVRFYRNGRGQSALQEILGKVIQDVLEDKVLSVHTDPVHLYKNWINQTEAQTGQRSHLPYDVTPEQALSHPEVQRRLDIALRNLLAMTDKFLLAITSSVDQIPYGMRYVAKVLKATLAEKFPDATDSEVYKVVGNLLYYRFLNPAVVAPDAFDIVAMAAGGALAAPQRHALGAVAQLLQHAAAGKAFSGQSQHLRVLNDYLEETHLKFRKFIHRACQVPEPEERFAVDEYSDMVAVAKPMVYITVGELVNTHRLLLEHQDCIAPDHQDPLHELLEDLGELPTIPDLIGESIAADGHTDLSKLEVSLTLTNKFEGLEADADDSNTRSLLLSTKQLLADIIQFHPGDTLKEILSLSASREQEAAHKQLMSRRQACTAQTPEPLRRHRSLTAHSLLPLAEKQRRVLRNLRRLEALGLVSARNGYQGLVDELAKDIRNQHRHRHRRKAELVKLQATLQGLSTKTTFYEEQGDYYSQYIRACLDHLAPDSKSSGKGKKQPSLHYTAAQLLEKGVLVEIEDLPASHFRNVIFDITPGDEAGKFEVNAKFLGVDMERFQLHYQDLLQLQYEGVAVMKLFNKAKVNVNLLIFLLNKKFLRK
UniProt O96013: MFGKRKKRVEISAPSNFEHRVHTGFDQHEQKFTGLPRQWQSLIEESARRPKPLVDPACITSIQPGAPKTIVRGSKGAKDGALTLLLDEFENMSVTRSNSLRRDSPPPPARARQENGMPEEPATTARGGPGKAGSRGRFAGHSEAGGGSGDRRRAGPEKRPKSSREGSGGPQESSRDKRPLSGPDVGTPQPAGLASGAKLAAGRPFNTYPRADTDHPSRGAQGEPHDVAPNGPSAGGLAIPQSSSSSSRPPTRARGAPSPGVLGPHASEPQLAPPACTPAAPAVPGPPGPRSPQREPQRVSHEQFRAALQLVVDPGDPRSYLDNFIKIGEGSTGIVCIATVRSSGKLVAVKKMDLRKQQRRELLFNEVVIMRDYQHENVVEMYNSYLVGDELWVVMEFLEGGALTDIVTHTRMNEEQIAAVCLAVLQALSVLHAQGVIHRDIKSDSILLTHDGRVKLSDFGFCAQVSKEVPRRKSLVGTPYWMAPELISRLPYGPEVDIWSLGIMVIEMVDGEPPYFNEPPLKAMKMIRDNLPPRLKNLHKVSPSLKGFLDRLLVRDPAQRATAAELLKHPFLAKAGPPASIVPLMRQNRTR

Results are given in words; binding and its absence hold for the method and conditions named. Binding seen in cells or lysates may run through a third protein. A yes stands for co-enrichment or nearness to the bait. Other partners may have been found.

The target of assay [1] is 3xFlag-tagged Cdc42 splice variant 2 (UniProt P60953). Nature of the assay: affinity purification with mass spectrometry; HEK293 cells transfected with pQCXIP-3×Flag-Cdc42-V1 or -V2 (empty vector as control); lysates immunoprecipitated with a Flag antibody; gel bands cut for mass spectrometry.
Assay [2] concerns the target 3xFlag-tagged Cdc42 variant 1 (canonical Cdc42) (UniProt P60953). Described as above.

With IQGAP1 (from UniProt P46940 1-1657), the binding result in assay [1] is on record as “binds”. On to IQGAP3 (from UniProt Q86VI3 1-1631), for which the binding entry in assay [1] and in assay [2] was “binds” in each case. Turning to “PAK4 (from UniProt O96013 1-591) (enzyme)”, the binding result in assay [1] and in assay [2] was “binds” in each case.

B1: MAPK kinase kinase 7 (enzyme, UniProt O43318 1-606)
chain: MSTASAASSSSSSSAGEMIEAPSQVLNFEEIDYKEIEVEEVVGRGAFGVVCKAKWRAKDVAIKQIESESERKAFIVELRQLSRVNHPNIVKLYGACLNPVCLVMEYAEGGSLYNVLHGAEPLPYYTAAHAMSWCLQCSQGVAYLHSMQPKALIHRDLKPPNLLLVAGGTVLKICDFGTACDIQTHMTNNKGSAAWMAPEVFEGSNYSEKCDVFSWGIILWEVITRRKPFDEIGGPAFRIMWAVHNGTRPPLIKNLPKPIESLMTRCWSKDPSQRPSMEEIVKIMTHLMRYFPGADEPLQYPCQYSDEGQSNSATSTGSFMDIASTNTSNKSDTNMEQVPATNDTIKRLESKLLKNQAKQQSESGRLSLGASRGSSVESLPPTSEGKRMSADMSEIEARIAATTAYSKPKRGHRKTASFGNILDVPEIVISGNGQPRRRSIQDLTVTGTEPGQVSSRSSSPSVRMITTSGPTSEKPTRSHPWTPDDSTDTNGSDNSIPMAYLTLDHQLQPLAPCPNSKESMAVFEQHCKMAQEYMKVQTEIALLLQRKQELVAELDQDEKDQQNTSRLVQEHKKLLDENKSLSTYYQQCKKQLEVIRSQQQKRQGTS
For B1, the binding result in assay [1] and in assay [2] was “binds” throughout.
